## Percent effect of library compounds

Sequences of proteins named here, by UniProt entry; tags and fusion partners are left off. Residues count along the entry.
UniProt Q4DA54, 1-478: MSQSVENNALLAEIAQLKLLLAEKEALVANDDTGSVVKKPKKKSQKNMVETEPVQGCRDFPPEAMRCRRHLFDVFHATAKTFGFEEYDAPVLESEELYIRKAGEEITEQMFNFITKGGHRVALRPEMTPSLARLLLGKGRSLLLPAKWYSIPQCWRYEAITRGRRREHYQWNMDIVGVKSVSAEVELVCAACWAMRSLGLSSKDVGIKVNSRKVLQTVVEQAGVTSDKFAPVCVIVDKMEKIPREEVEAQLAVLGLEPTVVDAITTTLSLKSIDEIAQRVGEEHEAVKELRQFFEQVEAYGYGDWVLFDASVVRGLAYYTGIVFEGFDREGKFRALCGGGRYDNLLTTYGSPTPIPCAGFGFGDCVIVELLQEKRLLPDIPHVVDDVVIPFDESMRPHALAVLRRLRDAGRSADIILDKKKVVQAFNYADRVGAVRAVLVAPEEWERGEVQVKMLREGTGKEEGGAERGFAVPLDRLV
UniProt P9WPC5, whole entry: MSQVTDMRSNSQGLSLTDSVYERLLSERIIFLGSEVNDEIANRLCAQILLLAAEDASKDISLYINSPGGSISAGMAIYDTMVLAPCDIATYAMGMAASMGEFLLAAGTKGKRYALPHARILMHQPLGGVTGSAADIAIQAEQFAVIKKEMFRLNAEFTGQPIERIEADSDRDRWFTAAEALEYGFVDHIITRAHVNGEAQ
UniProt P9WPC3, whole entry partner: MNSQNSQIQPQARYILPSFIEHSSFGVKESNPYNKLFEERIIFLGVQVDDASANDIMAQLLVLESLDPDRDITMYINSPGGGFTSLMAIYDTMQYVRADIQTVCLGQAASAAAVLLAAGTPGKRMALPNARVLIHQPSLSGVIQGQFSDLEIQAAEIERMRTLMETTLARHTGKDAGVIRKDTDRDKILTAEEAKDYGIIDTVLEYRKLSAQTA
UniProt Q8IDJ8, 1-583: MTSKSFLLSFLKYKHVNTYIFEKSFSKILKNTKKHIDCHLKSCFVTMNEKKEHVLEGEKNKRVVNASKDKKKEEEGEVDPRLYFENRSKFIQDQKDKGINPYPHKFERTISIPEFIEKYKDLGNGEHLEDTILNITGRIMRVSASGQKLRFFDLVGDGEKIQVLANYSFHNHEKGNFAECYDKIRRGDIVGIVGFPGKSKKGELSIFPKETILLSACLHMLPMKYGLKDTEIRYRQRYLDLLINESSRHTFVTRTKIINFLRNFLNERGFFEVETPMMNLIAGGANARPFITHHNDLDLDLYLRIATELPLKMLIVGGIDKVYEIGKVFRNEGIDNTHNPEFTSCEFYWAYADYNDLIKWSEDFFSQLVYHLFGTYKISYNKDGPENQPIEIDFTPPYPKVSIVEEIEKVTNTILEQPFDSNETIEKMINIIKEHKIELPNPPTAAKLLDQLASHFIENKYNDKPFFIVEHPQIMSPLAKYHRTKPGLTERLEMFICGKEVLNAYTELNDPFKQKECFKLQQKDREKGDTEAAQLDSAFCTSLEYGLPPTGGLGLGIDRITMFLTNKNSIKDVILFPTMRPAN

A: 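Cell assay of Leishmania donovani living inside macrophages; the read-out is not stated. Concentration: 30 µM. Direction is inferred from retests: higher values go with stronger inhibition. Size under these conditions: about 69,000 compounds, about 1,000 of them at 50% or above in at least one test.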
B: 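Enzyme assay of histidyl-tRNA synthetase; the read-out is not stated. Target: Histidine-tRNA ligase, Trypanosoma cruzi CL Brener (UniProt Q4DA54). Concentration: 30 µM. Higher reads as stronger inhibition (inferred: compounds with an IC50 in retests scored well above the rest). About 69,000 compounds were tested under these conditions; 0.045% (about 31) showed 50% or more at least once.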
C: 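ClpP1P2, Mycobacterium tuberculosis (UniProt P9WPC5 and UniProt P9WPC3). Protease assay of ClpP1P2, read by the AMC dye that it sets free. Tested at 50 µM. Higher reads as stronger inhibition, judged from the few compounds that gave an IC50. Most other retested compounds had strongly negative values. Of about 69,000 compounds tested this way, about 10 (0.015%) reached 50% or more in at least one test.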
D: 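Assay of Toxoplasma gondii numbers, read through their beta-galactosidase reporter with a colour substrate. Concentration: 10 µM. The record gives no direction; the compounds picked for IC50 retests had high values, so higher reads as fewer parasites. Size under these conditions: about 67,000 compounds, about 260 of them at 50% or above in at least one test.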
E: 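Enzyme assay of the cytosolic lysyl-tRNA synthetase in 384-well plates, read by luminescence. Target: Lysine-tRNA ligase, Plasmodium falciparum 3D7 (UniProt Q8IDJ8). Compounds at 30 µM. Direction is inferred from only a few compounds that gave an IC50; most scored high, so higher reads as stronger inhibition. Size under these conditions: about 69,000 compounds, about 49 of them at 50% or above in at least one test.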

Each number is a percent effect as filed.
How 0% and 100% were set is not recorded. Most values in the screen are low, and negative values occur.
Compounds were drawn at random from those tested, without regard to their results.
Two or more numbers in one place are separate tests of the same structure; such repeats can differ widely.

Result for CCOc1ncccc1NC(=O)N1CCCCCC1 was A: 11.66%; B: -2.682%; C: -2.191%; D: 14%; E: 2.915%. For CC(=O)NC1CCCN(Cc2ccc(-n3ccnc3)cc2)C1 (centres undefined) the result was A: 34.65%; B: 5.747%; C: 0.7927%; D: -3.572%; E: 8.184%. Cc1ccccc1CN1CCCC1c1cncc(Nc2nncs2)n1 (centres undefined) read A: 15.73%; B: 5.385%; C: 8.665%; E: 0.8136%. With c1cc2c(cc1CN1CC[C@H]3CO[C@H](CN4CCCC4)[C@H]3C1)OCO2 the screen gave B: 11.49%; C: 12.66%; E: 6.571%. For O=C(c1ccco1)N1CC[C@@H]2CN(C3CCOCC3)CCO[C@@H]2C1 the result was B: 11.56%; C: 1.094%; E: 2.809%.

With C[C@]1(O)CN(Cc2ccc(C(=O)O)cc2)CC[C@@H]1Oc1cccc(F)c1 the screen gave A: 5.093% & 20.96%; B: 10.99%; C: 6.518%; D: -6.061%; E: 2.585%. CN(Cc1ccco1)Cc1cncc2c1CCN(Cc1ccoc1)C2 read B: -4.233%; C: -25.3%; E: 1.687%. Result for CCc1noc(C(C)N(C)Cc2ccc(OC)c(OC)c2)n1 (centres undefined) was A: 0.3034%; B: 10.84%; C: 12.73%; D: -19.32%; E: 7.078%. For Cc1noc(C(C)C)c1C(=O)NCC(c1cccs1)N(C)C (centres undefined) the result was A: 24.06%; B: 2.907%; C: -0.07695%; D: -11.38%; E: 0.4154%. With Cn1ccnc1C(=O)N[C@@H]1CN(Cc2ccc(F)cc2)[C@@H]2CCCO[C@@H]21 the screen gave B: 6.63%; C: -10.87%; E: 4.874%.

Cn1cc(CN2CCc3ncnc(C4CCOC4)c3CC2)cn1 (centres undefined) gave A: 13.47% & 20.51%; B: -10.75%; C: -2.616%; D: 8.441%; E: -2.005%. With COc1ccc(C)cc1CN1CCN(Cc2nccn2C)CC1 the screen gave A: 5.145%; B: 16.87%; C: -3.558%; D: -5.085%; E: 2.763%. CC1c2cc(F)ccc2CCN1CCS(=O)(=O)C(C)C (centres undefined) read A: 21.94%; B: 6.952%; C: -0.04611%; D: -0.437%; E: -0.8704%. Result for CN(CC(=O)N1CCOCC(CO)C1)Cc1ccccn1 (centres undefined) was A: 27.36%; B: -0.4292%; C: -5.197%; D: 0.3062%; E: 5.086%. With CN(CCO)CC1COCCN1C(=O)C1CCCCC1 (centres undefined) the screen gave B: 13.94%; C: -11.91%; E: 1.362%.

Result for O=C(NCCNc1cnccn1)N1CCCC1 was A: -17.02%; B: 5.639%; C: 5.086%; D: -34.81%; E: -3.121%. For COc1ccc(C[C@H]2CN(C(=O)C3CC3)CC[C@H]2OC)cc1 the result was A: 21.02%; B: 2.913%; C: 18.1%; D: -7.729%; E: 1.334%. Cc1nc(NC(=O)CN2CCc3c(nc(C(C)C)n3C)C2)sc1C gave A: 43.27%; B: 5%; C: -8.786%; D: 1.731%; E: 4.88%. Result for CN1C(=O)CC(c2cnn(C)c2)C12CCN(C(=O)c1ccnnc1)CC2 (centres undefined) was A: 25.39%; B: 12.61%; C: 0.9347%; D: -12.18%; E: 4.656%. Result for Cc1ccc(CC(=O)N2CCC(Nc3ccc(C)nn3)CC2)cn1 was A: 37.85%; B: 8.309%; C: -11.83%; D: 12.2%; E: -1.171%.

With CC(CNCc1ccc(Cl)c(Cl)c1)Oc1ccccn1 (centres undefined) the screen gave B: -2.732%; C: 12.86%; E: -3.067%. With Cc1cccnc1CN1CCN(C(=O)CCn2ccc(=O)[nH]c2=O)CC1 the screen gave A: 43.3%; B: 7.853%; C: -0.3089%; D: -3.746%; E: 0.3803%. For Cc1cc(C(=O)N2C[C@H]3CC[C@@H]2CN(Cc2ccccn2)C3)nc(C)n1 the result was B: 9.74%; C: 0.7211%; E: 6.794%. Cc1cnc2n(c1=O)C(CC(=O)NCc1ccccc1Cl)CS2 (centres undefined) gave A: 5.659%; B: 7.538%; C: 14.58%; D: 12.64%; E: 5.175%.

Once more, the final 2:

With Cc1cc(C(=O)N2C[C@H]3CC[C@@H]2CN(Cc2ccccn2)C3)nc(C)n1 the screen gave B: 9.74%; C: 0.7211%; E: 6.794%.
With Cc1cnc2n(c1=O)C(CC(=O)NCc1ccccc1Cl)CS2 (centres undefined) the screen gave A: 5.659%; B: 7.538%; C: 14.58%; D: 12.64%; E: 5.175%.

Source: ChEMBL document CHEMBL3988442, “University of Dundee, Small-Polar-MMV Screening Library” (2021).